Source: paper PMC12667200
These are yes or no findings as the source states them, for the method shown. In cells and extracts the contact can be indirect. Some binding calls cover weakened binding; strength is not graded here.

Legend:
[1] = target: N-terminal FLAG-tagged full-length BAG3 (BAG3-WT, amino acids 1-575) (UniProt O95817); assay: co-IP; HeLa cells cotransfected with tagged constructs; lysed in RIPA buffer (total cell extracts); immunoprecipitation with anti-FLAG or anti-GFP, western blot
GFP-tagged BAG3 = GFP-tagged BAG3 (UniProt O95817); assay: as above
[2] = target: p53, endogenous (human (endogenous in HeLa)) (UniProt P04637); assay: co-IP; endogenous proteins; HeLa WT and bag3 KO cells heat stressed at 42 °C for 1 h, recovery at 37 °C for 1 h; nuclear fractions; immunoprecipitation with anti-Hsp70 or anti-p53, western blot

| binding [1] | binding (GFP-tagged BAG3) | binding [2] | Substance |
| --- | --- | --- | --- |
| binds | binds | – | N-terminal myc-tagged full-length p53 (p53-WT, amino acids 1-393) (from UniProt P04637 1-393) |
| – | – | binds | Bcl-2-associated athanogene 3 (BAG3), endogenous (from UniProt O95817 1-575) |
